Some entries share one result that the patent states for a list of compounds.
Biological target: 5-HT2A receptor (Homo sapiens, UniProt P28223)
Assay: Calcium mobilization (Fluo-8) assay in CHO-K1 cells stably expressing 5-HT2A (+5-HT2A)
Format: cell-based
Settings: +5-HT2A cells; 0.001-100 μM; relative Fluo-8 fluorescence vs time
Method: Briefly, vials with cells were removed from the liquid nitrogen and thawed quickly in 37° C. water bath.

The chains behind the UniProt entries cited, without tags or fusion partners.
UniProt P28223, whole entry: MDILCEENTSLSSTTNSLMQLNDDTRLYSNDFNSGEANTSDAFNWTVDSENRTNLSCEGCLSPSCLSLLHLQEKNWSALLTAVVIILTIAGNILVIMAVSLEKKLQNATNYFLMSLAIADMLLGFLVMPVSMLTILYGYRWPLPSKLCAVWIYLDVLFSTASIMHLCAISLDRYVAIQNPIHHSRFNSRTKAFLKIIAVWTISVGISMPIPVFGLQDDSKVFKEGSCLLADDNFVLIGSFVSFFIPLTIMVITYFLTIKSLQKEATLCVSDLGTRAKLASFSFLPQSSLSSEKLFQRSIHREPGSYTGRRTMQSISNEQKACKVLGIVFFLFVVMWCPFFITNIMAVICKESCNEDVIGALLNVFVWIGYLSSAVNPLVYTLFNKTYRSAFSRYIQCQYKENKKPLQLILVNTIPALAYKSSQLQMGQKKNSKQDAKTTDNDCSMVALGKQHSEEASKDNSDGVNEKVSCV

SMILES | time to peak of intracellular calcium flux
NCCc1c[nH]c2cccc(O[C@@H]3OC(CO)[C@@H](O)C(O)C3O)c12 (stereo partly drawn) [III, 4-O-β-D-glucopyranosyltryptamine] | under 60 seconds
CN(C)CCc1c[nH]c2cccc(O)c12 [psilocin, reference compound] | under 60 seconds

Reference: patent US11891360B2, “Glycosylated psilocybin derivatives and methods of using” (Enveric Biosciences Canada Inc., priority 2020, dated 2024)
